Read-outs that look alike come from different tables or passages of the source. Part of at least one peptide drawing is inferred or uncertain, most often the ends. At least one compound was matched to its structure with a doubt left. Numbered stars: 1 amine (or outer) side, 2 acyl side, 3 side chain; on linkers, the order of the positions; unused ones are H or OH. Square brackets hold non-standard residues; d marks the D form. Side chains are listed from the residue outwards. Peptide text beside a SMILES is read from it. * marks the point of attachment. γGlu = O=C(O)[C@H](CCC(=O)[*:2])N[*:1]; Palmitoyl = CCCCCCCCCCCCCCCC(=O)*; X1 = O=C(Cc1ccc(O)cc1)*
Assays:
Assay in all cases: cAMP induction, firefly luciferase reporter assay in HEK293 cells co-transfected with receptor
Type in all cases: cell-based
GIP receptor = target: T1, GIP receptor (Homo sapiens, UniProt P48546); conditions: read-out: EC50 at GIP Receptor
T1 construct: expressed in transfected cells; host or cells: HEK293
T1 sequence (P48546 22-466): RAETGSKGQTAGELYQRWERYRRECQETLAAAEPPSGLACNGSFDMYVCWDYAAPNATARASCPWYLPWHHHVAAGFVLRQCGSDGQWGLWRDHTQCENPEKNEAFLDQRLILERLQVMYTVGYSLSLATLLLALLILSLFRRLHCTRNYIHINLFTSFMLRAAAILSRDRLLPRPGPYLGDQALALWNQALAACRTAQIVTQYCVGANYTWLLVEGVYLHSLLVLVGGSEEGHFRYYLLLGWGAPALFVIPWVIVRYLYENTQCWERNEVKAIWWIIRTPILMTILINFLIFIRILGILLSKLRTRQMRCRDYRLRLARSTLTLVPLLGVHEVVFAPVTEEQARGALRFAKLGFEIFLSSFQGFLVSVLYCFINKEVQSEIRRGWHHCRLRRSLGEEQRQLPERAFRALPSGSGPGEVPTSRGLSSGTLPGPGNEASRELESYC
Description: (§1) The ability of glucagon analogs to induce cAMP was measured in a firefly luciferase-based reporter assay. […] At the end of the incubation 100 microliters of LucLite luminescence substrate reagent (Perkin-Elmer, Wellesley, Mass.) were added to each well. […] Effective 50% concentrations were calculated by using Origin software (OriginLab, Northampton, Mass.

Amino acid sequences for entries named in this document (tags omitted). Residues count along the entry.
UniProt P47871, 26-477: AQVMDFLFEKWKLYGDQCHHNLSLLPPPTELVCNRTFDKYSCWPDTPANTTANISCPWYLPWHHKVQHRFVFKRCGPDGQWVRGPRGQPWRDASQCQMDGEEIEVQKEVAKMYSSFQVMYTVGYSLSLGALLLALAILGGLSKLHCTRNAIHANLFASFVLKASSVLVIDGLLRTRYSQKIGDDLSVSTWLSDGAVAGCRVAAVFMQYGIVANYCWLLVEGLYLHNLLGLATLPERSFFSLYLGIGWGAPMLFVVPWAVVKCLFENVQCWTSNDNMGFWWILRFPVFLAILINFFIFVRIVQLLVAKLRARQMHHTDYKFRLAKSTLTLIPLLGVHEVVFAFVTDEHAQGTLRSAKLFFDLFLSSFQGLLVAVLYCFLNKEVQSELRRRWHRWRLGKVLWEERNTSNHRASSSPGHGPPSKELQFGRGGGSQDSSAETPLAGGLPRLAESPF
UniProt P43220, 24-463: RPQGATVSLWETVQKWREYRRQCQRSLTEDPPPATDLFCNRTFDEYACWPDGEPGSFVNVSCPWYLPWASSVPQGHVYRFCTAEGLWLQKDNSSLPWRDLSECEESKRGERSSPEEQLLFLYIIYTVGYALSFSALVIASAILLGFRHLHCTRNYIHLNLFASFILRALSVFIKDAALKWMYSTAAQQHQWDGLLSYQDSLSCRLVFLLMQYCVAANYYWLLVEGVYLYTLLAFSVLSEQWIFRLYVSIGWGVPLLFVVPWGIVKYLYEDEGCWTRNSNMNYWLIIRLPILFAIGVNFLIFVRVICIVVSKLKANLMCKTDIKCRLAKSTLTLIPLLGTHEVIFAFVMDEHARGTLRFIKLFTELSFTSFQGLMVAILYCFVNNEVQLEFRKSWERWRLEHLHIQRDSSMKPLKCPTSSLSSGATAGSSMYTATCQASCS

glucagon receptor = target: T2, glucagon receptor (Homo sapiens, UniProt P47871); conditions: read-out: EC50 at Glucagon Receptor
T2 construct: expressed in transfected cells; host or cells: HEK293
Description: as §1

GLP-1 receptor = target: T3, GLP-1 receptor (Homo sapiens, UniProt P43220); conditions: read-out: EC50 at GLP-1 Receptor
T3 construct: expressed in transfected cells; host or cells: HEK293
Description: as §1

[1] = Table 1, analogs of SEQ ID NO: 37
[2] = Table 3, analogs of SEQ ID NO: 12
[3] = Table 2, analogs of SEQ ID NO: 10

CCCCCCCCCCCCCCCC(=O)N[C@@H](CCC(=O)NCCCC[C@H](NC(=O)[C@H](CC(=O)O)NC(=O)[C@H](CO)NC(=O)[C@@H](NC(=O)[C@H](Cc1ccccc1)NC(=O)[C@@H](NC(=O)CNC(=O)[C@H](CCC(N)=O)NC(=O)[C@H](C)NC(=O)[C@H](CCCN)NC(C)=O)[C@@H](C)O)[C@@H](C)O)C(=O)N[C@@H](CO)C(=O)N[C@@H](CCCCN)C(=O)N[C@@H](Cc1ccc(O)cc1)C(=O)N[C@@H](CC(C)C)C(=O)N[C@@H](CC(=O)O)C(=O)N[C@@H](CCC(=O)O)C(=O)N[C@@H](CCCNC(=N)N)C(=O)N[C@@H](C)C(=O)N[C@@H](C)C(=O)N[C@@H](CCC(N)=O)C(=O)N[C@@H](CC(=O)O)C(=O)N[C@@H](Cc1ccccc1)C(=O)N[C@H](C(=O)N[C@@H](CCC(N)=O)C(=O)N[C@@H](Cc1c[nH]c2ccccc12)C(=O)N[C@@H](CC(C)C)C(=O)N[C@@H](CC(C)C)C(=O)N[C@@H](CCC(=O)O)C(=O)NCC(=O)NCC(=O)N1CCC[C@H]1C(=O)N[C@@H](CO)C(=O)N[C@@H](CO)C(=O)NCC(=O)N[C@@H](C)C(=O)N1CCC[C@H]1C(=O)N1CCC[C@H]1C(=O)N1CCC[C@H]1C(=O)N[C@@H](CO)C(N)=O)C(C)C)C(=O)O [compound 30]
EC50 (GIP receptor; [1]): 0.183 nM | EC50 (glucagon receptor; [1]): 0.635 nM | EC50 (GLP-1 receptor; [1]): 0.002 nM

Ac-[dY]AQGTFTSDYSKYLDERAAQDFVQWLLEGGPSSGAPPPSK([γGlu-γGlu-Palmitoyl])G-NH2 [compound 152]
EC50 (GIP receptor; [2]): 0.017 nM | EC50 (glucagon receptor; [2]): 0.003 nM | EC50 (GLP-1 receptor; [2]): 0.003 nM

CCCCCCCCCCCCCCCC(=O)N[C@@H](CCC(=O)NCCCC[C@H](NC(=O)[C@H](CC(=O)O)NC(=O)[C@H](CO)NC(=O)[C@@H](NC(=O)[C@H](Cc1ccccc1)NC(=O)[C@@H](NC(=O)CNC(=O)[C@H](CCC(N)=O)NC(=O)[C@H](C)NC(=O)Cc1ccc(O)cc1)[C@@H](C)O)[C@@H](C)O)C(=O)N[C@@H](CO)C(=O)N[C@@H](CCCCN)C(=O)N[C@@H](Cc1ccc(O)cc1)C(=O)N[C@@H](CC(C)C)C(=O)N[C@@H](CC(=O)O)C(=O)N[C@@H](CCC(=O)O)C(=O)N[C@@H](CCCNC(=N)N)C(=O)N[C@@H](C)C(=O)N[C@@H](C)C(=O)N[C@@H](CCC(N)=O)C(=O)N[C@@H](CC(=O)O)C(=O)N[C@@H](Cc1ccccc1)C(=O)N[C@H](C(=O)N[C@@H](CCC(N)=O)C(=O)N[C@@H](Cc1c[nH]c2ccccc12)C(=O)N[C@@H](CC(C)C)C(=O)N[C@@H](CC(C)C)C(=O)N[C@@H](CCC(=O)O)C(=O)NCC(=O)NCC(=O)N1CCC[C@H]1C(=O)N[C@@H](CO)C(=O)N[C@@H](CO)C(=O)NCC(=O)N[C@@H](C)C(=O)N1CCC[C@H]1C(=O)N1CCC[C@H]1C(=O)N1CCC[C@H]1C(=O)N[C@@H](CO)C(N)=O)C(C)C)C(=O)O [compound 156] (X1-AQGTFTSDK([γGlu-Palmitoyl])SKYLDERAAQDFVQWLLEGGPSSGAPPPS-NH2)
EC50 (GIP receptor; [3]): 0.042 nM | EC50 (glucagon receptor; [3]): 0.011 nM | EC50 (GLP-1 receptor; [3]): 0.002 nM
